# Measurements reported in the supplement of paper PMC7530171.
# ± gives the standard deviation. The entries are a selection whose mix differs from that of the whole data set.
# Test system: THP-1 macrophages infected with Mycobacterium tuberculosis H37Rv
# Test: intracellular M.tb growth inhibition relative to DMSO (0) and 4 uM bedaquiline (100); higher = stronger inhibition of intracellular bacterial growth
# Conditions: 10 µM; 4 days
# Method: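 OICR kinase inhibitor library screened in duplicate at 10 uM against THP-1 macrophages (PMA-differentiated) infected with M. tuberculosis H37Rv-pTEC27 (tdTomato RFP), 4 days at 37 C. Rows with complete host cell loss (placeholder inhibition 0, cell loss 100) were removed.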
row,Structure (SMILES),intracellular M.tb growth inhibition [%]
1,O=C1NC(=O)c2c1c(-c1ccccc1)cc1[nH]c3ccc(O)cc3c21,121 ± 7.8
2,Cc1ccccc1-n1c(Cn2nc(-c3cccc(O)c3)c3c(N)ncnc32)nc2cccc(C)c2c1=O,-70.4 ± 58
